Data reported in patent US20240315991A1, “USES OF HNF4 ALPHA AGONISTS” (Sanford Burnham Prebys Medical Discovery Institute, priority 2023, published 2024).
“Also recorded” adds a separate entry of the source.

Tested on: C57BL/6 mice fed high fat diet (HFD)
Assay: HFD induced weight gain and hepatic steatosis, NCT in HFD chow for 10 weeks
Format: in vivo
Details: HFD+NCT vs HFD
Experimental: NCT oral administration. Four-week-old male C57BL/6J (JAX cat #000664) mice were purchased from Jackson laboratory and were maintained in a 12 h light/dark cycle throughout the experiment. Prior to the experiments, mice were acclimated for 2 weeks. Six-week-old mice with similar body weights were randomized to a normal diet (NC), a high fat diet (HFD) (Research Diets, cat #D12492 60 kcal % fat) or HFD containing 4000 ppm NCT (HFD+NCT) (Research Diets, 60 kcal % fat+4000 ppm NCT), which was calculated to provide approximately 400 mg/kg/d NCT. HFD chow containing NCT was made with gray dye to distinguish it from regular HFD chow that had green dye. […] Body weight gain and food intake were measured every week for 10 weeks. […]
Sample collection. […] Mice were dissected aseptically and liver, epididymal fat, and body weights were measured and pictures taken. […]
Oil Red O staining (in vivo) and analysis. […] The liver area stained with oil red O was measured using image J software as described, with some modifications as follow, Oil red O-stained liver images were opened in Image J software. […] Fold change was calculated by normalizing the values to images from mice fed normal chow.
Triglyceride analysis. The TG level in mouse liver, serum, and stool was measured according to manufacturer's instructions using the Triglyceride calorimetric Assay Kit (Cat #10010303, Cayman Chemicals, USA). […]

With `O=C(/C=C/c1ccc(O)c(O)c1)NCCc1ccc(O)cc1` [NCT, N-trans caffeoyltyramine] the “chow consumption per cage” value (measured every week for 10 weeks) was “non-significant; also recorded: no difference” and the “stool triglyceride (TG) level” value (normalized to stool dry weight) was “non-significant; also recorded: equal”.
